Earlier results as cited in PMC11242853, “The Antimicrobial Activity of Human Defensins at Physiological Non-Permeabilizing Concentrations Is Caused by the Inhibition of the Plasma Membrane H^+-ATPases” (International Journal of Molecular Sciences, 2024).
“Also recorded” adds a separate entry of the source.

Design: method as in 19 sources, ref 24; PMID 3290255; doi:10.1172/JCI113527; 24. Lehrer R.I. Ganz T. Szklarek D. Selsted M.E. Modulation of the in vitro candidacidal activity of human neutrophil defensins by target cell metabolism and divalent cations J. Clin. Invest. 1988 81 || [47]; PMID 11083633; doi:10.1128/AAC.44.12.3310-3316.2000; 47. Edgerton M. Koshlukova S.E. Araujo M.W. Patel R.C. Dong J. Bruenn J.A. Salivary histatin 5 and human neutrophil defensin 1 kill Candida albicans via shared pathways Antimicrob. Agents Chemother. 2 ||| ref 20 = [20]; PMID 17074797; doi:10.1128/AAC.00478-06; 20. Vylkova S. Nayyar N. Li W. Edgerton M. Human beta-defensins kill Candida albicans in an energy-dependent and salt-sensitive manner without causing membrane disruption Antimicrob. Agents Chemother. ||| ref 24, 62 (HNP-1); 62, 63 (HNP-4); 20 (hBD-2); 12, 20 (hBD-3); 34, 35, 64 cidal and 65, 66 static (lactoferrin) ||| ref 26 (HNP-1); 12 (HNP-4); 11 (hBD-2, hBD-3); 43, 67 (lactoferrin) ||| ref 14 (HNP-1); 23 (HNP-4); Yes 11, 13 / No 20 (hBD-2); No 20 / Yes 11 (hBD-3); 31, 34, 42 (lactoferrin) ||| ...
Settings: Table 2, cited from earlier work

B1: human lactoferrin: Recombinant human apo-lactoferrin (hLf), 691 amino acid γ-core protein that inhibits microbial PM H+-ATPases; control (protein, UniProt P02788 20-710, looked up)
Lactotransferrin: GRRRSVQWCAVSQPEATKCFQWQRNMRKVRGPPVSCIKRDSPIQCIQAIAENRADAVTLDGGFIYEAGLAPYKLRPVAAEVYGTERQPRTHYYAVAVVKKGGSFQLNELQGLKSCHTGLRRTAGWNVPIGTLRPFLNWTGPPEPIEAAVARFFSASCVPGADKGQFPNLCRLCAGTGENKCAFSSQEPYFSYSGAFKCLRDGAGDVAFIRESTVFEDLSDEAERDEYELLCPDNTRKPVDKFKDCHLARVPSHAVVARSVNGKEDAIWNLLRQAQEKFGKDKSPKFQLFGSPSGQKDLLFKDSAIGFSRVPPRIDSGLYLGSGYFTAIQNLRKSEEEVAARRARVVWCAVGEQELRKCNQWSGLSEGSVTCSSASTTEDCIALVLKGEADAMSLDGGYVYTAGKCGLVPVLAENYKSQQSSDPDPNCVDRPVEGYLAVAVVRRSDTSLTWNSVKGKKSCHTAVDRTAGWNIPMGLLFNQTGSCKFDEYFSQSCAPGSDPRSNLCALCIGDEQGENKCVPNSNERYYGYTGAFRCLAENAGDVAFVKDVTVLQNTDGNNNEAWAKDLKLADFALLCLDGKRKPVTEARSCHLAMAPNHAVVSRMDKVERLKQVLLHQQAKFGRNGSDCPDKFCLFQSETKNLLFNDNTECLARLHGKTTYEKYLGPQYVAGITNLKKCSTSPLLEACEFLRK
modifications: apo form
notes: control
- Cellular target (ref 13 (hBD-2 phospholipids), 34, 35, 36 and 39 (lactoferrin)): PM (V) H^+-ATPase
- Cell death type (yeast) (ref 14 (HNP-1), 23 (HNP-4), 20, 11, 13 (hBD-2), 20, 11 (hBD-3), 36, 44, 31, 42 (lactoferrin)): Apoptosis-like cell death; also recorded: No permeabilization
